The exact form of at least one protein or probe is not confirmed. Negatives hold for the conditions tested.

Protein sequences, listed by entry. Tags and fused reporters are not part of them. Residues count along the entry.
UniProt Q9UBX2, 19-153, stated change not applied: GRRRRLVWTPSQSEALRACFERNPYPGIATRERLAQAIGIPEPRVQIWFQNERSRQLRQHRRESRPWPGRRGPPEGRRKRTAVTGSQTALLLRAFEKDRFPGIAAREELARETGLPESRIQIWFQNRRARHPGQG

The data set has as its target DUX4 HD1-HD2 poly-Glu mutant (human) (UniProt Q9UBX2). The experiment in a line: BLI. The following applies: biotin; BLI on Octet Red 96, biotin-DNA-DRE on SA sensors, protein 0.5-32 uM (HD2) or 0.25-16 uM (HD1-HD2); recombinant protein; residues 19-153. On the technique in general: In BLI a coated tip is dipped into the sample, and binding shifts an interference pattern.

As for “TTCTAATCTAATCA (double strand) [biotin-DNA-DRE (BLI)]”, the binding result was “no binding”.
